The record followed here is paper PMC3628344.

Sequences of proteins named here, by UniProt entry; tags and fusion partners are left off.
UniProt Q9Y2J4: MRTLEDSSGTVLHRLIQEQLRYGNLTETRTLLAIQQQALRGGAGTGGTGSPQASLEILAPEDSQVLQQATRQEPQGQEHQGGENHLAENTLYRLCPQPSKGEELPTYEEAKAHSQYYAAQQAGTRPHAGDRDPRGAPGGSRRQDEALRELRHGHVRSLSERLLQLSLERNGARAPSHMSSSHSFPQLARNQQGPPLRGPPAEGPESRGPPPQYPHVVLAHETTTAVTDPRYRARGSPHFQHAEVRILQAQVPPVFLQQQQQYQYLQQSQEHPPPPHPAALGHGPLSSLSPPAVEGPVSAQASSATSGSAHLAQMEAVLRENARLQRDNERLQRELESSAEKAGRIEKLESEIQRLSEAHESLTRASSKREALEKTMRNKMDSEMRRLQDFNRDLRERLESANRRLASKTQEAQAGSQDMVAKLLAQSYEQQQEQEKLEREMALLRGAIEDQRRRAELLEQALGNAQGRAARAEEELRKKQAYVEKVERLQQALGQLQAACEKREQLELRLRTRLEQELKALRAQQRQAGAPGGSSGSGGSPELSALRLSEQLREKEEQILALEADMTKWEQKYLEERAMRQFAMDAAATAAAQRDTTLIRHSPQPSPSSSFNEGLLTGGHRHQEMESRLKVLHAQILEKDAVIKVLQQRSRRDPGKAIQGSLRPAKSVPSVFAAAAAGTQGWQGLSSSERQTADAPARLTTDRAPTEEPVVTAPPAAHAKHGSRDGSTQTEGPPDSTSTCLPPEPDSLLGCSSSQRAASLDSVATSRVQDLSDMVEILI

These are yes or no findings as the source states them, for the method shown. In cells and extracts the contact can be indirect. Here binding means that the protein was enriched with, or labelled near, the bait; the list need not be complete.

The test concerns the target YAP (endogenous, SF268 cells) (human (endogenous in SF268)) (UniProt P46937). The experiment in a line: affinity purification with mass spectrometry; IP of endogenous YAP from SF268 lysate (RIPA buffer); prominent bands cut from a Coomassie-stained gel, LC-MS.

In the case of “AMOTL2 (endogenous, SF268 cells) (from UniProt Q9Y2J4 1-779)”, the binding result was “binds”.

B1: AMOTL1 (endogenous, SF268 cells) (protein, UniProt Q8IY63 1-956)
chain: MWRAKLRRGTCEPAVKGSPSACYSPSSPVQVLEDSTYFSPDFQLYSGRHETSALTVEATSSIREKVVEDPLCNFHSPNFLRISEVEMRGSEDAAAGTVLQRLIQEQLRYGTPTENMNLLAIQHQATGSAGPAHPTNNFSSTENLTQEDPQMVYQSARQEPQGQEHQVDNTVMEKQVRSTQPQQNNEELPTYEEAKAQSQFFRGQQQQQQQQGAVGHGYYMAGGTSQKSRTEGRPTVNRANSGQAHKDEALKELKQGHVRSLSERIMQLSLERNGAKQHLPGSGNGKGFKVGGGPSPAQPAGKVLDPRGPPPEYPFKTKQMMSPVSKTQEHGLFYGDQHPGMLHEMVKPYPAPQPVRTDVAVLRYQPPPEYGVTSRPCQLPFPSTMQQHSPMSSQTSSASGPLHSVSLPLPLPMALGAPQPPPAASPSQQLGPDAFAIVERAQQMVEILTEENRVLHQELQGYYDNADKLHKFEKELQRISEAYESLVKSTTKRESLDKAMRNKLEGEIRRLHDFNRDLRDRLETANRQLSSREYEGHEDKAAEGHYASQNKEFLKEKEKLEMELAAVRTASEDHRRHIEILDQALSNAQARVIKLEEELREKQAYVEKVEKLQQALTQLQSACEKREQMERRLRTWLERELDALRTQQKHGNGQPANMPEYNAPALLELVREKEERILALEADMTKWEQKYLEESTIRHFAMNAAATAAAERDTTIINHSRNGSYGESSLEAHIWQEEEEVVQANRRCQDMEYTIKNLHAKIIEKDAMIKVLQQRSRKDAGKTDSSSLRPARSVPSIAAATGTHSRQTSLTSSQLAEEKKEEKTWKGSIGLLLGKEHHEHASAPLLPPPPTSALSSIASTTAASSAHAKTGSKDSSTQTDKSAELFWPSMASLPSRGRLSTTPAHSPVLKHPAAKGTAEKLENSPGHGKSPDHRGRVSSLLHKPEFPDGEMMEVLI
For the molecule B1, the binding result is listed as “binds”.
